Data taken from the supplement of paper PMC8728848.
This is one part of the list.

How the values were obtained:
Assay in all cases: glycan array binding signal (z-score within array); higher = stronger binding
Details in all cases: glycan notation: IUPAC condensed, linker removed
[1] = biological target: Gal(b1-4)GlcNAc(b1-3)Gal(b1-4)GlcNAc(b1-6)[Gal(b1-3)]GalNAc
In short: (§1)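 Glycan array binding is given as a within-array Z-score, which can be read as non-binding when negative. The arrays, 3228 of them, came from the Consortium for Functional Glycomics database and were retained only where the protein sequence was available. Z-scores were averaged across arrays of the same protein sequence at different concentrations or buffers and across linkers.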

[2] = biological target: Gal(b1-4)GlcNAc(b1-3)Gal(b1-4)[Fuc(a1-3)]GlcNAc(b1-3)Gal(b1-4)[Fuc(a1-3)]GlcNAc
In short: as §1

[3] = biological target: Gal(b1-4)GlcNAc(b1-3)GalNAc
In short: as §1

[4] = biological target: Gal(b1-4)GlcNAc(b1-3)[Fuc(a1-3)GlcNAc(b1-6)]Gal(b1-4)Glc
In short: as §1

[5] = biological target: Gal(b1-4)GlcNAc(b1-3)[Gal(b1-4)GlcNAc(b1-6)]Gal(b1-4)GlcNAc
In short: as §1

[6] = biological target: Gal(b1-4)GlcNAc(b1-3)[GlcNAc(b1-6)]Gal(b1-4)GlcNAc
In short: as §1

[7] = biological target: Gal(b1-4)GlcNAc(b1-6)Gal(b1-4)GlcNAc
In short: as §1

[8] = biological target: Gal(b1-4)GlcNAc(b1-6)GalNAc
In short: as §1

[9] = biological target: Gal(b1-4)GlcNAc(b1-6)[Gal(b1-3)]GalNAc
In short: as §1

[10] = biological target: Gal(b1-4)GlcNAc(b1-6)[Gal(b1-4)GlcNAc(b1-3)]GalNAc
In short: as §1

[11] = biological target: Gal(b1-4)GlcNAc6P
In short: as §1

[12] = biological target: Gal(b1-6)Gal
In short: as §1

[13] = biological target: Gal3S(b1-3)GalNAc
In short: as §1

[14] = biological target: Gal3S(b1-3)GlcNAc
In short: as §1

[15] = biological target: Gal3S(b1-3)[Fuc(a1-4)]GlcNAc
In short: as §1

[16] = biological target: Gal3S(b1-4)Glc
In short: as §1

[17] = biological target: Gal3S(b1-4)Glc6S
In short: as §1

[18] = biological target: Gal3S(b1-4)GlcNAc
In short: as §1

[19] = biological target: Gal3S(b1-4)[Fuc(a1-3)]Glc6S
In short: as §1

[20] = biological target: Gal3S(b1-4)[Fuc(a1-3)]GlcNAc
In short: as §1

[21] = biological target: Gal3S(b1-4)[Fuc(a1-3)]GlcNAc6S
In short: as §1

[22] = biological target: Gal3S4S(b1-4)GlcNAc
In short: as §1

[23] = biological target: Gal3S6S(b1-4)GlcNAc
In short: as §1

[24] = biological target: Gal3S6S(b1-4)GlcNAc6S
In short: as §1

[25] = biological target: Gal4S(b1-4)GlcNAc
In short: as §1

[26] = biological target: Gal4S6S(b1-4)GlcNAc
In short: as §1

[27] = biological target: Gal6P(b1-4)GlcNAc
In short: as §1

[28] = biological target: Gal6S(b1-3)GlcNAc
In short: as §1

[29] = biological target: Gal6S(b1-3)GlcNAc6S
In short: as §1

[30] = biological target: Gal6S(b1-4)Glc
In short: as §1

[31] = biological target: Gal6S(b1-4)Glc6S
In short: as §1

[32] = biological target: Gal6S(b1-4)GlcNAc
In short: as §1

[33] = biological target: Gal6S(b1-4)GlcNAc6S
In short: as §1

[34] = biological target: GalNAc(a1-3)Gal
In short: as §1

[35] = biological target: GalNAc(a1-3)GalNAc
In short: as §1

[36] = biological target: GalNAc(a1-3)GalNAc(b1-3)Gal(a1-4)Gal(b1-4)Glc
In short: as §1

[37] = biological target: GalNAc(a1-3)GalNAc(b1-3)Gal(a1-4)Gal(b1-4)GlcNAc
In short: as §1

[38] = biological target: GalNAc(b1-3)Gal
In short: as §1

[39] = biological target: GalNAc(b1-3)Gal(a1-4)Gal(b1-4)GlcNAc
In short: as §1

[40] = biological target: GalNAc(b1-3)Gal(a1-4)Gal(b1-4)GlcNAc(b1-3)Gal(b1-4)Glc
In short: as §1

[41] = biological target: GalNAc(b1-3)Gal(a1-6)Gal(b1-4)Glc
In short: as §1

[42] = biological target: GalNAc(b1-3)GalNAc
In short: as §1

[43] = biological target: GalNAc(b1-3)GlcNAc
In short: as §1

[44] = biological target: GalNAc(b1-4)Gal(b1-4)Glc
In short: as §1

[45] = biological target: GalNAc(b1-4)GlcNAc
In short: as §1

[46] = biological target: GalNAc(b1-4)GlcNAc(b1-2)Man
In short: as §1

[47] = biological target: GalNAc(b1-4)GlcNAc(b1-2)Man(a1-3)[GalNAc(b1-4)GlcNAc(b1-2)Man(a1-6)]Man(b1-4)GlcNAc(b1-4)GlcNAc
In short: as §1

[48] = biological target: GalNAc(b1-4)GlcNAc(b1-3)GalNAc(b1-4)GlcNAc
In short: as §1

[49] = biological target: GalNAc(b1-4)GlcNAc6S
In short: as §1

[50] = biological target: GalNAc(b1-6)GalNAc
In short: as §1

[51] = biological target: GalNAc3S(b1-4)GlcNAc
In short: as §1

[52] = biological target: GalNAc3S(b1-4)GlcNAc3S
In short: as §1

[53] = biological target: GalNAc3S(b1-4)[Fuc(a1-3)]GlcNAc
In short: as §1

[54] = biological target: GalNAc4S6S(b1-4)GlcNAc
In short: as §1

[55] = biological target: GalNAc6S(b1-4)GlcNAc
In short: as §1

[56] = biological target: Glc(a1-4)Glc
In short: as §1

[57] = biological target: Glc(a1-4)Glc(a1-4)Glc(a1-4)Glc
In short: as §1

[58] = biological target: Glc(a1-6)Glc(a1-6)Glc
In short: as §1

[59] = biological target: Glc(a1-6)Glc(a1-6)Glc(a1-6)Glc
In short: as §1

[60] = biological target: Glc(b1-4)Glc
In short: as §1

[61] = biological target: Glc(b1-6)Glc
In short: as §1

[62] = biological target: GlcA(b1-3)Gal
In short: as §1

[63] = biological target: GlcA(b1-3)GlcNAc
In short: as §1

[64] = biological target: GlcA(b1-6)Gal
In short: as §1

[65] = biological target: GlcA3S(b1-3)Gal(b1-4)GlcNAc(b1-2)Man
In short: as §1

[66] = biological target: GlcA3S(b1-3)Gal(b1-4)GlcNAc(b1-3)Gal(b1-4)Glc
In short: as §1

[67] = biological target: GlcNAc(a1-3)Gal(b1-4)GlcNAc
In short: as §1

[68] = biological target: GlcNAc(a1-4)Gal(b1-3)GlcNAc
In short: as §1

[69] = biological target: GlcNAc(a1-4)Gal(b1-4)GalNAc
In short: as §1

[70] = biological target: GlcNAc(a1-4)Gal(b1-4)GlcNAc
In short: as §1

[71] = biological target: GlcNAc(a1-4)Gal(b1-4)GlcNAc(b1-3)Gal(b1-4)Glc
In short: as §1

[72] = biological target: GlcNAc(a1-4)Gal(b1-4)GlcNAc(b1-3)Gal(b1-4)GlcNAc
In short: as §1

[73] = biological target: GlcNAc(a1-4)Gal(b1-4)GlcNAc(b1-3)Gal(b1-4)GlcNAc(b1-3)Gal(b1-4)GlcNAc
In short: as §1

[74] = biological target: GlcNAc(a1-4)Gal(b1-4)GlcNAc(b1-3)Gal(b1-4)[Fuc(a1-3)]GlcNAc(b1-3)Gal(b1-4)[Fuc(a1-3)]GlcNAc
In short: as §1

[75] = biological target: GlcNAc(a1-6)Gal(b1-4)GlcNAc
In short: as §1

B1: Wzz (Escherichia coli) (protein)
chain: MRTWKFPSVRVMMRVENNNVSGQNHDPEQIDLIDLLVQLWRGKMTIIISVIVAIVLAIGYLAVAKEKWTSTAIITQPDVGQIAGYNNAMNVIYGQAAPKVSDLQETLIGRFSSAFSALAETLDNQEEPEKLTIEPSVKNQQLPLTVSYVGQTAEGAQMKLAQYIQQVDDKVNQELEKDLKDNIALGRKNLQDSLRTQEVVAQEQKDLRIRQIQEALQYANQAQVTKPQIQQTGEDITQDTLFLLGSEALESMIKHEATRPLVFSSNYYQTRQNLLDIDNLDVDKLDIHAYLYVMKPTLPIRRDSPKKAITLILAVLLGGMVGAGIVLGRNALRNYNAK
glycan array binding signal (z-score) [1]: 0.509 | glycan array binding signal (z-score) [2]: -0.331 | glycan array binding signal (z-score) [3]: -0.354 | glycan array binding signal (z-score) [4]: -0.732 | glycan array binding signal (z-score) [5]: -0.539 | glycan array binding signal (z-score) [6]: -0.974 | glycan array binding signal (z-score) [7]: 0.404 | glycan array binding signal (z-score) [8]: 0.775 | glycan array binding signal (z-score) [9]: -0.482 | glycan array binding signal (z-score) [10]: 0.204 | glycan array binding signal (z-score) [11]: 0.064 | glycan array binding signal (z-score) [12]: -0.019 | glycan array binding signal (z-score) [13]: -0.01 | glycan array binding signal (z-score) [14]: -0.401 | glycan array binding signal (z-score) [15]: -0.303 | glycan array binding signal (z-score) [16]: -0.21 | glycan array binding signal (z-score) [17]: -0.363 | glycan array binding signal (z-score) [18]: -0.061 | glycan array binding signal (z-score) [19]: 1.36 | glycan array binding signal (z-score) [20]: 0.876 | glycan array binding signal (z-score) [21]: 2.08 | glycan array binding signal (z-score) [22]: 0.91 | glycan array binding signal (z-score) [23]: 0.861 | glycan array binding signal (z-score) [24]: 16.9 | glycan array binding signal (z-score) [25]: -0.728 | glycan array binding signal (z-score) [26]: -0.319 | glycan array binding signal (z-score) [27]: -0.86 | glycan array binding signal (z-score) [28]: 0.504 | glycan array binding signal (z-score) [29]: -0.659 | glycan array binding signal (z-score) [30]: 0.245 | glycan array binding signal (z-score) [31]: 0.986 | glycan array binding signal (z-score) [32]: 0.428 | glycan array binding signal (z-score) [33]: 4.99 | glycan array binding signal (z-score) [34]: -0.563 | glycan array binding signal (z-score) [35]: -0.327 | glycan array binding signal (z-score) [36]: 0.491 | glycan array binding signal (z-score) [37]: 0.212 | glycan array binding signal (z-score) [38]: -0.018 | glycan array binding signal (z-score) [39]: -0.236 | glycan array binding signal (z-score) [40]: 0.023 | glycan array binding signal (z-score) [41]: -1.2 | glycan array binding signal (z-score) [42]: -0.158 | glycan array binding signal (z-score) [43]: -0.325 | glycan array binding signal (z-score) [44]: 0.919 | glycan array binding signal (z-score) [45]: -0.456 | glycan array binding signal (z-score) [46]: -0.591 | glycan array binding signal (z-score) [47]: -0.567 | glycan array binding signal (z-score) [48]: -0.667 | glycan array binding signal (z-score) [49]: -0.772 | glycan array binding signal (z-score) [50]: -0.118 | glycan array binding signal (z-score) [51]: -0.568 | glycan array binding signal (z-score) [52]: 1.15 | glycan array binding signal (z-score) [53]: 0.835 | glycan array binding signal (z-score) [54]: 5.1 | glycan array binding signal (z-score) [55]: -0.373 | glycan array binding signal (z-score) [56]: -0.197 | glycan array binding signal (z-score) [57]: 0.175 | glycan array binding signal (z-score) [58]: -0.682 | glycan array binding signal (z-score) [59]: 0.02 | glycan array binding signal (z-score) [60]: -0.306 | glycan array binding signal (z-score) [61]: -0.619 | glycan array binding signal (z-score) [62]: 1.51 | glycan array binding signal (z-score) [63]: 0.197 | glycan array binding signal (z-score) [64]: 1.01 | glycan array binding signal (z-score) [65]: 1.07 | glycan array binding signal (z-score) [66]: -0.084 | glycan array binding signal (z-score) [67]: -0.597 | glycan array binding signal (z-score) [68]: -0.185 | glycan array binding signal (z-score) [69]: 0.305 | glycan array binding signal (z-score) [70]: -0.192 | glycan array binding signal (z-score) [71]: 0.679 | glycan array binding signal (z-score) [72]: 0.28 | glycan array binding signal (z-score) [73]: -0.262 | glycan array binding signal (z-score) [74]: 0.173 | glycan array binding signal (z-score) [75]: -0.723
